About 170 (0.05%) of roughly 340,000 compounds were called active. This list was built around the results that the source calls inconclusive (neither active nor inactive); the mix of calls is not that of the screen. Calls come from the whole dose curve; as a rule, active = well fitted inhibition curve with a large enough effect in the signal ratio, with a control signal flat (not every such curve was filed as active); inconclusive = small, poorly fitted or top-dose-only effect, or effect the other way, or a change in a side signal; inactive = flat fitted curve, though single readings scatter; the % refers to the signal ratio. Potencies of inconclusive entries are doubtful fits and often do not repeat.
Test: qHTS Assay to Find Inhibitors of Chronic Active B-Cell Receptor Signaling;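 for activity change, negative = inhibition: plate controls were basal doxycycline-induced cells for no effect and cells given 10 µM MG132 for full effect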
Conditions: ABC-DLBCL IkBa-CBG/CBR reporter, luminescence ratio (green luciferase fused to IkBa over red control in TMD8 lymphoma cells), 4 h; activity change, negative = inhibition: at 46.1 µM (top of the series)
Method in brief: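 Compounds up to 46 uM were incubated four hours with TMD8 cells whose green CBG68 luciferase is fused to IkappaBalpha; red CBR luminescence normalised the signal, and concentration-effect curves were fitted to fusion, red and ratio data.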
For `O=c1oc(-c2ccco2)nc2sc3c(c12)CCCCC3`, the Potency was inconclusive: 2.82 µM [falling, full curve]. For `CCC(=O)Nc1nc2ccccc2n1Cc1ccc(C)cc1`, the activity change, negative = inhibition was “inactive”. For `O=C(c1ccccc1)c1nc2c(n1O)CCCCC2`, the activity change, negative = inhibition was inconclusive: -18.5%. For `COc1cccc(C(=O)Oc2ccc(/C=N/Nc3ccc(C(=O)O)cc3)cc2OC)c1`, the Potency was inconclusive: 0.355 µM [falling, partial curve, poor fit]. In the case of `O=C(O)c1ccccc1C(=O)Nc1ccc(Oc2ccccc2)cc1`, the activity change, negative = inhibition is reported as inconclusive: 11.3%. With `O=C1/C(=C\c2cccnc2)SC(=S)N1C1CCS(=O)(=O)C1` (stereo not given) the Potency was inconclusive: 3.98 µM [falling, partial curve, poor fit]. In the case of `COc1ccc2cc(CN(CC3CCCO3)S(=O)(=O)c3ccccc3)c(=O)[nH]c2c1` (stereo not given), the Potency is reported as inconclusive: 9.2 µM [falling, partial curve]. For `COc1ccc(C(=O)NC(=S)N(C)C2CCCCC2)cc1`, the activity change, negative = inhibition was “inactive”. For `COc1cccc(C(=O)OCC(=O)NCCc2ccccc2)c1OC`, the activity change, negative = inhibition was inconclusive: 2.99%. For `O=C(CNC(=O)c1ccccc1)OCc1cccc([N+](=O)[O-])c1`, the activity change, negative = inhibition was inconclusive: 9.86%. In the case of `CC12CCC(=O)C=C1CCC1C2C(O)CC2(C)C1CCC2(O)C(=O)CO` (stereo not given), the Potency is reported as inconclusive: 0.0891 µM [falling, full curve, poor fit]. For `COc1ccc(/C=C(/C(=O)c2cccs2)N2C=CC=CC2=C(C#N)C#N)cc1`, the activity change, negative = inhibition was inconclusive: -7.07%. With `C=CC[C@@H](CC(=O)N[C@H](CO)Cc1ccccc1)C(=O)N[C@@H](COC(=O)[C@@H](CC=C)CC(=O)OC(C)(C)C)Cc1c[nH]c2ccccc12` the activity change, negative = inhibition was inconclusive: 0.13%. For `Cc1ccc2[nH]c(=O)c(CN(Cc3cccs3)Cc3nnnn3Cc3ccccc3)cc2c1`, the Potency was inconclusive: 28.2 µM [falling, single point]. With `O=C(Oc1ccccc1)Oc1ccc2c(c1)oc(=O)c1ccccc12` the Potency was inconclusive: 1.12 µM [falling, partial curve, poor fit]. For `CN1CCN(c2ncccc2S(=O)(=O)N2CCCCC2)CC1`, the activity change, negative = inhibition was inconclusive: 11.1%. With `O=c1[nH]c2ccccc2n1C1=CCCC1` the activity change, negative = inhibition was inconclusive: -0.491%. In the case of `O=C(CSc1ncn[nH]1)Nc1ccc(Br)cc1F`, the Potency is reported as inconclusive: 11.2 µM [falling, partial curve, poor fit]. With `CCCCN(CCCC)C(=O)CCS(=O)(=O)c1ccc2c(c1)n(C)c(=O)c(=O)n2C` the activity change, negative = inhibition was inconclusive: -2.33%. For `C/C(=N\NC(=O)c1ccc(F)cc1)c1ccc(NC(=O)Cc2ccccc2)cc1`, the Potency was inconclusive: 31.6 µM [falling, single point]. For `Cc1nc(-c2ccc(O)c(O)c2)cs1`, the activity change, negative = inhibition was inconclusive: -16%. For `Cc1cc(=O)[nH]c(SCC(=O)Nc2ccccc2C)n1`, the activity change, negative = inhibition was inconclusive: 18.3%. With `Cc1ccc(SC[C@H](CC(C)C)N2CCN(CCc3ccccc3)CCC2=O)cc1` the activity change, negative = inhibition was inconclusive: -11.8%. With `O=C(CC1SC(=Nc2ccc(OC(F)F)cc2)N(CCN2CCOCC2)C1=O)Nc1ccc(F)cc1F` (stereo not given) the activity change, negative = inhibition was “inactive”. With `CCc1nn(C(C)C(=O)NCCc2ccc(OC)c(OC)c2)c(=O)c2cc3occc3n12` (stereo not given) the activity change, negative = inhibition was inconclusive: 13.1%. With `Cc1ccc(N=C2C(=O)Nc3ccc(Br)cc32)cc1` the Potency was inconclusive: 35.5 µM [falling, single point]. For `S=C(N/N=C/c1ccccc1Cl)Nc1ccccc1`, the Potency was inconclusive: 15.8 µM [falling, partial curve]. With `O=C(NCc1ccco1)c1cccc(NC(=O)c2ccccc2)c1` the Potency was inconclusive: 29.1 µM [falling, single point]. For `COc1ccc(/C=N/NC(=O)Nc2nonc2N)cc1`, the activity change, negative = inhibition was inconclusive: -6.6%. In the case of `Cc1cnn(Cc2ccccc2)c1N`, the activity change, negative = inhibition is reported as inconclusive: -1.96%. With `CCOC(=O)N1CCC(NC(=O)CS(=O)(=O)Cc2nc(-c3cccc(OC)c3)oc2C)CC1` the activity change, negative = inhibition was inconclusive: 5.27%. In the case of `Cc1ccc(NC(=O)c2ccc(NS(=O)(=O)c3ccc4[nH]c(=O)[nH]c4c3)cc2)nc1`, the activity change, negative = inhibition is reported as inconclusive: -7.43%. For `COc1ccc(NC(=O)c2noc3c2CCC3)cc1`, the Potency was inconclusive: 18.4 µM [falling, partial curve, poor fit]. For `CCOc1ccc(C(C)=O)cc1COC(=O)C1=COCCO1`, the activity change, negative = inhibition was inconclusive: 0.476%. For `CC(=O)N1CCc2cc(S(=O)(=O)NCCC(=O)Nc3cccc(C)c3C)ccc21`, the activity change, negative = inhibition was inconclusive: -0.441%. For `CCOc1nc(-c2ccc(Cl)cc2Cl)ccc1C#N`, the activity change, negative = inhibition was inconclusive: 17.6%. With `Cc1ccc(OCC(=O)Nc2cc(S(=O)(=O)N3CCOCC3)ccc2Cl)c([N+](=O)[O-])n1` the activity change, negative = inhibition was “inactive”. With `CCCn1c(=O)c2c(nc3n2CCCN3CCc2ccccc2)n(C)c1=O` the activity change, negative = inhibition was inconclusive: 2.3%. In the case of `Cc1ccc(NC(=O)CN(C)C(=O)COC(=O)C2=COCCO2)cc1`, the activity change, negative = inhibition is reported as “inactive”. In the case of `CC(=O)Nc1ccc2nc(NC(=O)c3cccnc3)sc2c1`, the Potency is reported as inconclusive: 25.1 µM [falling, single point]. For `COCCOC(=O)c1c(C)nc(SCC(=O)Nc2cccc3ccccc23)c(C#N)c1-c1ccco1`, the activity change, negative = inhibition was “inactive”. For `CCOC(=O)Cc1csc(NC(=O)c2sc3nc4cc(C)ccc4cc3c2N)n1`, the activity change, negative = inhibition was inconclusive: 5.43%. In the case of `CC(C)(C)OC(=O)C[C@H]1C/C=C\C[C@H](CC(=O)N[C@H](CO)Cc2ccccc2)C(=O)N[C@@H](Cc2ccccc2)COC1=O`, the activity change, negative = inhibition is reported as “inactive”. With `Cc1ccc(N(C)S(=O)(=O)c2ccc(-c3cc(C)no3)s2)cc1` the Potency was inconclusive: 10 µM [falling, partial curve]. For `COC(=O)Cc1c(C)nc2nc(-c3ccc(OC)cc3)[nH]n2c1=O`, the Potency was inconclusive: 4.61 µM [rising, full curve, poor fit]. For `Clc1ncnc2scc(C3COc4ccccc4O3)c12` (stereo not given), the Potency was inconclusive: 20.6 µM [falling, single point]. In the case of `CCCCCC1CC(CC(=O)Nc2ccc([N+](=O)[O-])cc2)C(=O)O1` (stereo not given), the activity change, negative = inhibition is reported as inconclusive: 23.1%. In the case of `CC(c1ccccc1)C1CC(=O)N(c2ccc(C(=O)O)cc2)C1=O` (stereo not given), the activity change, negative = inhibition is reported as inconclusive: 0.94%. For `c1ccc2nc(-c3ccc(-n4ccnc4)cc3)ccc2c1`, the activity change, negative = inhibition was inconclusive: -4.75%. For `COc1cc(Cl)ccc1OCc1cc(C(=O)N(C)CCc2cnn(C)c2)no1`, the activity change, negative = inhibition was “inactive”. With `COc1ccc(C(C(=O)NCc2ccccc2)N(Cc2ccco2)C(=O)c2snc(C(N)=O)c2N)cc1OC` (stereo not given) the activity change, negative = inhibition was “inactive”. With `COc1ccc(NC(=O)CN2CCC(C(=O)c3ccc(C)cc3)CC2)c(OC)c1` the activity change, negative = inhibition was “inactive”. For `COc1ccc(/C=C/C(=O)C2CC2)cc1COc1c(C)cccc1C`, the activity change, negative = inhibition was inconclusive: -21.1%. For `O=C1Nc2ccccc2S/C1=C/Nc1cccc(Cl)c1`, the activity change, negative = inhibition was inconclusive: 279%. In the case of `C/C(=N\O)c1ccc2c3ccccc3n(C)c2c1`, the activity change, negative = inhibition is reported as inconclusive: 0.683%. In the case of `N#CCSc1nc2c(cc1C#N)CCCCCC2`, the activity change, negative = inhibition is reported as inconclusive: 13.6%. With `O=c1[nH]cnc2c1c(-c1ccccc1)cn2-c1cccc(Cl)c1` the activity change, negative = inhibition was inconclusive: -14.1%. In the case of `O=C(C(=O)N1CCN(c2ccc(F)cc2)CC1)c1cn(CC(=O)N2CCOCC2)c2ccccc12`, the Potency is reported as inconclusive: 17.8 µM [falling, single point]. With `N#C/C(=C/c1ccc(N2CCOCC2)o1)c1nc2ccccc2[nH]1` the Potency was inconclusive: 23.1 µM [falling, partial curve]. With `CCc1ccc2nc(N3CCN(C(=O)C(C)(C)C)CC3)sc2c1` the activity change, negative = inhibition was inconclusive: 5.84%. For `O=C(O)C1CC1C(=O)N1CCN(c2ccc(Cl)c(Cl)c2)CC1` (stereo not given), the Potency was inconclusive: 29.1 µM [falling, single point]. In the case of `COc1ccc(-c2nc(C#N)c(NCCc3ccccc3)o2)cc1`, the activity change, negative = inhibition is reported as inconclusive: 7.81%. With `NNC(=O)c1ccc2ccccc2n1` the activity change, negative = inhibition was inconclusive: -2.4%. For `COc1ccc(S(=O)(=O)NCc2ccco2)cc1NC(=O)c1ccccc1`, the activity change, negative = inhibition was inconclusive: -14.4%. In the case of `CCC(=O)N1c2ccc(S(=O)(=O)N3CCOCC3)cc2CC1C` (stereo not given), the activity change, negative = inhibition is reported as “inactive”. In the case of `CS(=O)(=O)N1CCN=C1SCc1ccc(F)cc1`, the activity change, negative = inhibition is reported as inconclusive: -0.891%. For `CC12CCC(C(=O)N3CCN(c4ncccn4)CC3)(c3nc4ccccc4nc31)C2(C)C` (stereo not given), the activity change, negative = inhibition was inconclusive: -16.9%. For `O=C(NC(=S)N1CCN(c2ccc([N+](=O)[O-])cc2)CC1)c1ccccc1F`, the activity change, negative = inhibition was “inactive”. In the case of `CNCC[C@@H](Oc1ccc(C(F)(F)F)cc1)c1ccccc1`, the activity change, negative = inhibition is reported as inconclusive: -10.2%. With `COc1ccccc1CNC(=O)CSc1nc(=O)n(Cc2ccncc2)c2c1CCC2` the Potency was inconclusive: 29.1 µM [falling, single point]. With `O=C1/C(=C/c2ccccc2F)SC(=S)N1CCC(=O)N1CCCCC1CCO` (stereo not given) the activity change, negative = inhibition was “inactive”. For `CCC(C)c1ccc(O)c(NC(=O)c2cccnc2)c1` (stereo not given), the activity change, negative = inhibition was “inactive”. For `CCN(CC)CCN1C(=O)C(=O)/C(=C(/O)c2c(C)[nH]c(C(=O)OC)c2C)C1c1ccc(C)o1` (stereo not given), the activity change, negative = inhibition was inconclusive: 4.81%. For `CCOC(=O)c1c(SC)nc(SC)c2c1CCC2`, the activity change, negative = inhibition was inconclusive: -1.11%. With `CCOc1ncccc1C(=O)N=c1sccn1C` the activity change, negative = inhibition was inconclusive: -0.247%. With `CCOc1ccccc1NC(=O)COC(=O)Cc1ccc(-c2ccccc2)cc1` the Potency was inconclusive: 6.51 µM [falling, full curve]. For `CCOc1ccc(C(=O)NCC(C)CN(C)C)cc1OCC` (stereo not given), the Potency was inconclusive: 6.51 µM [falling, single point]. With `Cc1ccc(C(=O)C2CCN(CC(=O)NC3CCCC3)CC2)cc1` the activity change, negative = inhibition was “inactive”. With `COCCNC(=O)c1cc2sc3ccccc3c2s1` the Potency was inconclusive: 29.1 µM [falling, single point]. In the case of `CCN(CC)S(=O)(=O)c1ccc(NC(=O)COC(=O)CNS(=O)(=O)/C=C/c2ccccc2)cc1`, the activity change, negative = inhibition is reported as inconclusive: -2.96%.

From PubChem BioAssay AID493014 (National Center for Advancing Translational Sciences (NCATS), 2011)
Potency is the fitted concentration of half-maximal effect.
